Our source for the binding values is paper PMC3596311, “PTB-Associated Splicing Factor (PSF) Is a PPARγ-Binding Protein and Growth Regulator of Colon Cancer Cells” (PLoS ONE, 2013).

Results are given in words; binding and its absence hold for the method and conditions named. Some binding calls cover weakened binding; strength is not graded here.

Holding throughout (experiment): two-hybrid; mammalian two-hybrid in CV-1 cells: GAL4 DNA-binding domain-PSF (pFN11A) and VP16-PPARγ1 (pFN10A), GAL4-UAS luciferase reporter; also with rosiglitazone 0.1–10 µM, which did not affect the interaction
On the technique in general: A reporter such as luciferase makes a cellular process visible.

For assay [1], the target named is T1, Gal4-PSF deletion mutant 290–707 (human) (UniProt P23246).
T1 sequence: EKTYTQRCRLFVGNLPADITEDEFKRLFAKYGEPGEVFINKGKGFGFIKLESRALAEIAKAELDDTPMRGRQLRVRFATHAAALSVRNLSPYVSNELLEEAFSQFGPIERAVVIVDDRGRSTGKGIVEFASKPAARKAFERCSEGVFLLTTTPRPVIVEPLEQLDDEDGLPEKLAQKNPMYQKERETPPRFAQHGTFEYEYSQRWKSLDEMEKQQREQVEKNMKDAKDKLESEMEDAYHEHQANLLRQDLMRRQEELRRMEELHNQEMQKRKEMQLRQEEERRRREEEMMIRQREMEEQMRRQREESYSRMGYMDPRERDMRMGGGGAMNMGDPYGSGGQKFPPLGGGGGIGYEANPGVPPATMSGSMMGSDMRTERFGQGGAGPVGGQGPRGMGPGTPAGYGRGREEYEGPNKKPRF

In assay [2] the target is T2, Gal4-PSF deletion mutant 370–707 (human) (UniProt P23246).
T2 sequence: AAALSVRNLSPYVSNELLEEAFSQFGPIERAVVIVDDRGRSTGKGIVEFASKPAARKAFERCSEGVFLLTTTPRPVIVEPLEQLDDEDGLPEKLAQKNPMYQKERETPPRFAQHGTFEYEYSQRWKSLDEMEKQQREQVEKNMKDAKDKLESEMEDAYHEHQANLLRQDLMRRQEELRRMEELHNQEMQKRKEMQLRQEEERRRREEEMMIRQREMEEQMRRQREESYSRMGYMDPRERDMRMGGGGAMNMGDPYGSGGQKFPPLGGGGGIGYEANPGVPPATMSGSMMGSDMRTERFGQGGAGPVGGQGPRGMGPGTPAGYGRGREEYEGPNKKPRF

Assay [3] deals with T3, Gal4-PSF deletion mutant 450–707 (human) (UniProt P23246).
T3 sequence: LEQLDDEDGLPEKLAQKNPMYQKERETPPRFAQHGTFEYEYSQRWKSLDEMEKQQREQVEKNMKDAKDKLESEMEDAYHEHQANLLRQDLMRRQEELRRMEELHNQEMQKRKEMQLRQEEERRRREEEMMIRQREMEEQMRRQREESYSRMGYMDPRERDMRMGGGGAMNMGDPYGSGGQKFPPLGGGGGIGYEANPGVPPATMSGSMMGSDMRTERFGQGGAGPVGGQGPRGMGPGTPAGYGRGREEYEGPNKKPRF

B1: PPARγ1, full-length, fused to the VP16 activation domain (pFN10A-PPARγ1) (natural protein, UniProt P37231-2 1-477, looked up)
chain: MTMVDTEMPFWPTNFGISSVDLSVMEDHSHSFDIKPFTTVDFSSISTPHYEDIPFTRTDPVVADYKYDLKLQEYQSAIKVEPASPPYYSEKTQLYNKPHEEPSNSLMAIECRVCGDKASGFHYGVHACEGCKGFFRRTIRLKLIYDRCDLNCRIHKKSRNKCQYCRFQKCLAVGMSHNAIRFGRMPQAEKEKLLAEISSDIDQLNPESADLRALAKHLYDSYIKSFPLTKAKARAILTGKTTDKSPFVIYDMNSLMMGEDKIKFKHITPLQEQSKEVAIRIFQGCQFRSVEAVQEITEYAKSIPGFVNLDLNDQVTLLKYGVHEIIYTMLASLMNKDGVLISEGQGFMTREFLKSLRKPFGDFMEPKFEFAVKFNALELDDSDLAIFIAVIILSGDRPGLLNVKPIEDIQDNLLQALELQLKLNHPESSQLFAKLLQKMTDLRQIVTEHVQLLQVIKKTETDMSLHPLLQEIYKDLY
notes: CheckMate/Flexi Vector Mammalian Two-Hybrid System (Promega), vector pFN10A; also called VP16-PPARγ; VP-16-PPARγ1; source: CV-1 cells, transiently transfected, mammalian two-hybrid fusion
B1: the binding result in assay [1] was “binds”; in assay [2] it was “no binding”; in assay [3] it was “no binding”.
